Results are given in words; binding and its absence hold for the method and conditions named. In cells and extracts the contact can be indirect. Some results given as binding are weak or reduced against the parent protein; the word gives no strength. For some assays here: Sequences can lack the tags named with a protein.
Legend:
GFP-dynactin 6 = GFP-dynactin 6 (UniProt O00399); experiment: co-IP; HEK 293 cells co-transfected with myc-tagged Rab and GFP fusion; lysis in 50 mM Tris pH 7.4, 150 mM NaCl, 1% Triton X-100; GFP fusions precipitated on GBP agarose beads, room temperature 1.5 h; blot for myc and GFP; co-IP efficiency = co-IP / input
GFP-syntaxin 8 = biological target: T1, GFP-syntaxin 8 (UniProt Q9UNK0); experiment: as above
T1 sequence: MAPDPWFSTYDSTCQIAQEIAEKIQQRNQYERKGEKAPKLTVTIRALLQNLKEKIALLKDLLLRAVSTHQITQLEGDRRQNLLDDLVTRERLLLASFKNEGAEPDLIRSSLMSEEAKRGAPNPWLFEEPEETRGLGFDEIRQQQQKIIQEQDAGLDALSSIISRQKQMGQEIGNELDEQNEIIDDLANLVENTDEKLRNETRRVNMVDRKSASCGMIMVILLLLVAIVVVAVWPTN

The chains behind the UniProt entries cited, without tags or fusion partners.
UniProt O00399: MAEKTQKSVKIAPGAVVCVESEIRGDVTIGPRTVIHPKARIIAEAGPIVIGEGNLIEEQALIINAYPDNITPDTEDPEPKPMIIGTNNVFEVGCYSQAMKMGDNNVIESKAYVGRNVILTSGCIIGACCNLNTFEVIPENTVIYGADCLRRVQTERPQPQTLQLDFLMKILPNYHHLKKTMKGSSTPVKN
UniProt P20340: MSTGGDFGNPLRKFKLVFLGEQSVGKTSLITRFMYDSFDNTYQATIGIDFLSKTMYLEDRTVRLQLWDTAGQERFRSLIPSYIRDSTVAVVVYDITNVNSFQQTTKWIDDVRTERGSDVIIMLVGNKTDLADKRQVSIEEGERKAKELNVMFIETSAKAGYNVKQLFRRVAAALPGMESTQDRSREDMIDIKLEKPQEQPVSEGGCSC

binding (GFP-dynactin 6): binds
binding (GFP-syntaxin 8): binds
Substance: myc-tagged wild type Rab6a (from UniProt P20340 1-208)

Source: PMC4771738
